Hit rate of the full screen: of about 300,000 compounds, about 5,400 (1.8%) were called active. Inconclusive means that the source gave no clear call. Such entries were picked first, then a sample of the others. Calls follow the shape of the full dose curve; tested in HEK293 cells. Potencies beside an inconclusive call are fits to weak or partial responses and may not hold up.
assay: qHTS for inhibitors of binding or entry into cells for Marburg Virus; conditions: Marburg virus pseudotyped entry inhibition, cell reporter; activity change, negative = inhibition: at 37.8 µM (top of the series) unless noted
% is scaled to controls: 0 for no effect and ±100 for the full control effect; potency is read from the fitted curve at half-maximal effect.

SMILES	Potency	activity change, negative = inhibition
COc1cccc(-c2nc(CS(=O)(=O)CC(=O)N3CCN(c4ccccc4)CC3)c(C)o2)c1	inconclusive: 10 µM [inhibitor, single point]	
CC1CC(C)CN(S(=O)(=O)c2ccc(NC(=O)CN3C(=O)NC(C)(c4ccccc4)C3=O)cc2)C1 (centres undefined)	inconclusive: 31.6 µM [inhibitor, single point]	
CCCC(=O)Nc1ccc(NC(=O)c2ccccc2Cl)nc1		inactive: -28.6% [at 46.1 µM]
CC(C)C(C(=O)NC(C)(C)C)N(CCN1CCOCC1)C(=O)CNS(=O)(=O)c1ccccc1 (centres undefined)		inactive: -20.8% [at 46.1 µM]
CN(C)c1ccc(C(=S)Nc2ccccc2)cc1	active: 14.1 µM	
Cc1cc(C)c(CSc2ncc(-c3ccc([N+](=O)[O-])cc3)[nH]2)c(C)c1	inconclusive: 28.2 µM [inhibitor, single point]	
Cc1cccc(NC(=O)COC(=O)Cc2c[nH]c3ccccc23)c1C	inconclusive: 0.316 µM [activator, partial curve, poor fit]	
O=c1oc2ccc(Cl)cc2nc1/C=C(\O)c1cccs1	inconclusive: 14.1 µM [inhibitor, single point]	
C=CCNc1nc(Nc2ccc([N+](=O)[O-])cc2)nc(OCC)n1	inconclusive: 0.708 µM [activator, full curve, poor fit]	
CCOC(=O)C(NC(=O)CC)(Nc1ccccc1OC)C(F)(F)F (centres undefined)		inactive: 2.14% [at 46.1 µM]
COc1ccc(-c2nnc(SCc3c(C)noc3C)o2)cc1		inactive: 12% [at 46.1 µM]
Cn1c(N/N=C2\CCCc3ccccc32)nc2c1c(=O)n(Cc1ccccc1)c(=O)n2C	inconclusive: 7.08 µM [activator, partial curve, poor fit]	
Cc1ccc2occ(CC(=O)Nc3ccc(Cl)c(C(F)(F)F)c3)c2c1	inconclusive: 12.6 µM [inhibitor, partial curve, poor fit]	
Cc1sc2nc(CSc3nc4ccccc4c(=O)n3CCCN3CCOCC3)[nH]c(=O)c2c1C	inconclusive: 6.31 µM [inhibitor, single point]	
CCOC(=O)c1ccc(NC(=O)c2nc[nH]c2C(=O)N[C@@H](Cc2ccccc2)C(=O)OC(C)(C)C)cc1		inactive: -1.41%
COC(=O)c1cc2c(C)[nH]c(C)c2cc(C(=O)OC)c1=O		inactive: 13.4%
Cc1ccc(OCC(=O)N2CCN(Cc3ccc4c(c3)OCO4)CC2)cc1		inactive: -4.67% [at 46.1 µM]
Cc1cc(N2CCC(C(=O)Nc3ccccc3Cl)CC2)n2nc(C)c(-c3ccc(Cl)cc3)c2n1		inactive: -0.941% [at 46.1 µM]
c1ccc(-c2nnc(N3CCN(c4ccccc4)CC3)nc2-c2ccccc2)cc1		inactive: 16.8% [at 46.1 µM]
CCOc1ccc(NC(=O)c2ccc(NC(=S)NC3CCCCC3)cc2)cc1	inconclusive: 17.8 µM [inhibitor, single point]	
COc1ccc2[nH]c(C(=O)NCc3ccc4c(c3)OCO4)cc2c1	inconclusive: 11.2 µM [inhibitor, partial curve, poor fit]	
Cc1ccc2nc3c(cc(C(=O)NCCN4CCOCC4)c(=N)n3CCCN3CCOCC3)c(=O)n2c1	inconclusive: 0.891 µM [inhibitor, full curve, poor fit]	
CCOCCCn1c(=N)c(C(=O)NC(C)c2ccccc2)cc2c(=O)n3cccc(C)c3nc21 (centres undefined)	inconclusive: 20 µM [inhibitor, partial curve, poor fit]	

SMILES	Potency	activity change, negative = inhibition
CC(C)OC(=O)c1ccc(NC(=O)c2cncc(Br)c2)cc1		inactive: 24.4% [at 46.1 µM]
CC(=O)c1ccc(NC(=O)C(C)N2CCN(C/C=C/c3ccccc3)CC2)cc1 (centres undefined)		inactive: -14.1% [at 14.2 µM]
CN(C(=O)c1ccc2c(c1)N(Cc1ccc(F)cc1)C(=O)c1ccccc1S2(=O)=O)C1CCCCC1		inactive: -31.2% [at 46.1 µM]
Cc1ccc2c(c1)nnn2C1CCN(S(C)(=O)=O)CC1		inactive: 3.4% [at 46.1 µM]
CCOC(=O)C1(Cc2cccc(OC)c2)CCN(Cc2cccc(OC)c2O)CC1	inconclusive: 22.4 µM [inhibitor, single point]	
CC(=O)NC12CC3CC(C1)CC(C(=O)N1CCN(S(=O)(=O)c4cccc(C(F)(F)F)c4)CC1)(C3)C2		inactive: -13%
Clc1cccc(CSc2nnc(-c3ccccn3)n2Cc2ccco2)c1	inconclusive: 29.1 µM [inhibitor, single point]	
COC(=O)c1ccccc1CC1Cc2cc3c(cc2C1=O)CCC3 (centres undefined)	inconclusive: 0.199 µM [activator, full curve, poor fit]	
c1cc(-c2noc(CC3CCCCC3)n2)ccn1		inactive: 6.41% [at 46.1 µM]
N#Cc1c(-c2ccccc2)c(-c2ccccc2)nn(CC(=O)NNC(=O)Nc2ccc(Cl)cc2)c1=O	inconclusive: 1.78 µM [inhibitor, partial curve, poor fit]	
CCC1([N+](=O)[O-])COC(C=Cc2ccccc2)OC1 (centres undefined)	inconclusive: 11.2 µM [activator, single point]	
CC(=O)Nc1cccc(C(=O)OCC(=O)NNC(=O)c2cccs2)c1	inconclusive: 0.891 µM [activator, partial curve, poor fit]	
O=C(O)Cc1ccc(NC(=O)Nc2cccc(Cl)c2)cc1		inactive: 1.91% [at 46.1 µM]
O=C(NC1CCCCC1)C(c1ccccc1F)N(C(=O)c1csnn1)C1CCCC1 (centres undefined)	inconclusive: 31.6 µM [inhibitor, partial curve, poor fit]	
O=C(COC(=O)c1cccc(S(=O)(=O)NCc2ccccc2)c1)c1ccc2c(c1)OCCO2	inconclusive: 31.6 µM [inhibitor, partial curve, poor fit]	
N#Cc1cn(CCOc2ccc(F)cc2)c2ccccc12		inactive: -27.4%
O=C(CSc1ccccc1F)NC(=O)c1ccc(Cl)cc1	inconclusive: 6.31 µM [inhibitor, single point]	
Fc1cccc2sc(Nc3nc4cc5c(cc4s3)OCO5)nc12	inconclusive: 0.651 µM [activator, single point]	
Cc1nc2ccc(S(=O)(=O)NC(C(=O)N3CCN(c4cccc(Cl)c4)CC3)C(C)C)cc2s1 (centres undefined)	inconclusive: 15.8 µM [inhibitor, single point]	
Cn1c(/C=N/Nc2nc3ccccc3[nH]2)nc2ccccc21	inconclusive: 5.62 µM [inhibitor, full curve, poor fit]	
Nc1cc(=O)[nH]c(SCCSc2cc(Cl)ccc2Cl)n1	inconclusive: 7.08 µM [inhibitor, partial curve, poor fit]	
O=C(NCC1(c2ccccc2)CCCC1)c1cccc(Br)c1	inconclusive: 17.8 µM [inhibitor, partial curve, poor fit]	
COc1ccc(OC)c(CNC(=O)C2CCC(=O)N(CCCN3CCCC3=O)C2)c1 (centres undefined)		inactive: -13.6%

SMILES	Potency	activity change, negative = inhibition
COC(=O)c1ccc(NC(=O)Nc2ccccc2F)cc1	inconclusive: 12.6 µM [inhibitor, single point]	
Cc1ccc(NC(=O)CSCC(=O)N2CCN(Cc3ccc4c(c3)OCO4)CC2)cc1		inactive: -16.7%
O=C(c1ccc2c(c1)N(Cc1ccc(Cl)cc1)C(=O)c1ccccc1S2(=O)=O)N1CCN(Cc2ccccc2)CC1	inconclusive: 11.2 µM [inhibitor, partial curve, poor fit]	
c1ccc2c(c1)c1c3n2CCNC3CCC1 (centres undefined)	inconclusive: 1.58 µM [activator, partial curve, poor fit]	
COC(=O)C1=C(C)NC(C)=C(C(=O)OCC2CCCO2)C1c1cccc(Cl)c1 (centres undefined)	inconclusive: 5.62 µM [inhibitor, single point]	
CCN(CC)CCn1c(NC(=O)c2ccc(C)cc2)nc2ccccc21	inconclusive: 35.5 µM [inhibitor, single point]	
CCc1ccc(-n2nc(CO)c(C(=O)NCc3cccnc3)n2)cc1	inconclusive: 7.08 µM [inhibitor, partial curve, poor fit]	
O=C1N=C2C=CC=CC2c2ccccc21 (centres undefined)		inactive: 16.6%
CCn1c(N2CCN(C(=O)C34CC5CC(CC(C5)C3)C4)CC2)nc2ccccc21	inconclusive: 13 µM [inhibitor, single point]	
O=C1CN(C(=O)COC(=O)CCC(=O)c2ccc(Cl)cc2)c2ccccc2N1		inactive: 10.8%
NC(=O)c1ccccc1NC(=O)/C=C/c1c(Cl)cccc1Cl	inconclusive: 29.1 µM [inhibitor, single point]	
Cc1cc(C)c(S(=O)(=O)N2CCCCC2CCNC(=O)C(=O)NCc2ccco2)c(C)c1 (centres undefined)	inconclusive: 14.1 µM [inhibitor, partial curve, poor fit]	
O=C1CCSc2cccc3cccc(c23)N1		inactive: -4.77%
Cc1cccc(CS(=O)(=O)Cc2ccc(C(=O)NCCCN3CCCC3)o2)c1		inactive: 0.334%
CC(C)CCOc1ccc(/C=N/N2C(=O)CSC2=S)cc1		inactive: -0.84% [at 46.1 µM]
COC(=O)Oc1ccc(/C=N/NS(=O)(=O)c2ccccc2)cc1OC	inconclusive: 12.6 µM [inhibitor, single point]	
CC12CCC=CC1=C(C=O)C1C2CCC2(C)C(O)CCC12 (centres undefined)	inconclusive: 35.5 µM [inhibitor, partial curve, poor fit]	
COc1ccc2ccccc2c1CNc1nnnn1C	inconclusive: 3.55 µM [activator, single point]	
O=C(Nc1ccc(Br)cc1)C1CCN(c2ncccn2)CC1		inactive: 4.01% [at 46.1 µM]
CCOP(=O)(OCC)C(NC(=O)Nc1ccc(Cl)cc1)C(N)=O (centres undefined)	inconclusive: 3.55 µM [activator, partial curve, poor fit]	
N=c1sccn1CC(=O)NC(=O)NC1CCCC1	inconclusive: 0.282 µM [inhibitor, full curve, poor fit]	
CCC(=O)N/N=C/c1ccc(-c2ccc([N+](=O)[O-])cc2)o1		inactive: 3.74%
O=C1CN(C(=O)COc2ccc(Cl)cc2)C(c2ccc(F)cc2)c2cc(Cl)ccc2N1 (centres undefined)	inconclusive: 35.5 µM [inhibitor, single point]	

Random excerpt: 2 records from the list, in no set order.
SMILES	Potency	activity change, negative = inhibition
CC(C)CCOc1ccc(/C=N/N2C(=O)CSC2=S)cc1		inactive: -0.84% [at 46.1 µM]
N=c1sccn1CC(=O)NC(=O)NC1CCCC1	inconclusive: 0.282 µM [inhibitor, full curve, poor fit]	

Some of the entries above, set out differently:
SMILES,Potency,"activity change, negative = inhibition"
CC(C)CCOc1ccc(/C=N/N2C(=O)CSC2=S)cc1,,inactive: -0.84% [at 46.1 µM]
COC(=O)Oc1ccc(/C=N/NS(=O)(=O)c2ccccc2)cc1OC,"inconclusive: 12.6 µM [inhibitor, single point]",
CC12CCC=CC1=C(C=O)C1C2CCC2(C)C(O)CCC12 (centres undefined),"inconclusive: 35.5 µM [inhibitor, partial curve, poor fit]",
COc1ccc2ccccc2c1CNc1nnnn1C,"inconclusive: 3.55 µM [activator, single point]",

Source: PubChem BioAssay AID540276 (National Center for Advancing Translational Sciences (NCATS), 2011)
